Results are given in words; binding and its absence hold for the method and conditions named. In cells and extracts the contact can be indirect.
Experiments:
Rab33B GTPase [1] = target: T1, Rab33B GTPase (UniProt O35963); assay: co-IP; coimmunoprecipitation of core and Rab33B; no details given (told only in the discussion)
T1 sequence: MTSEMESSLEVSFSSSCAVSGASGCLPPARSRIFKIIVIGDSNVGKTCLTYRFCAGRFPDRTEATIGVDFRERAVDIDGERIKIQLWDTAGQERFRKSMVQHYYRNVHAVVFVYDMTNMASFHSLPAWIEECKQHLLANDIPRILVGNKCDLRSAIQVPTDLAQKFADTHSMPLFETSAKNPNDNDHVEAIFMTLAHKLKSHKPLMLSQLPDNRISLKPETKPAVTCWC

By UniProt entry, the sequences of proteins in these tests, tags left out.
UniProt P03146: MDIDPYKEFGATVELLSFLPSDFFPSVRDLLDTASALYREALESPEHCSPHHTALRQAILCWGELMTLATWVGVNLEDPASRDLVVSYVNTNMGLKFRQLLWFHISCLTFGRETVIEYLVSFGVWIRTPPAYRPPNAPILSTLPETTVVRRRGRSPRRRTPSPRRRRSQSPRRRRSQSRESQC

Rab33B GTPase [2] = target: T1, Rab33B GTPase; assay: pull-down; GST pulldown of core and Rab33B; no details given (told only in the discussion; which partner was fused to GST is not told)

For “hepatitis B virus (HBV) core protein (from UniProt P03146 1-183)”, the binding (Rab33B GTPase [1]) was “no binding” and the binding (Rab33B GTPase [2]) was “no binding”.
